The target in this experiment is T1, growth hormone receptor (mouse liver microsomal membrane preparation) (mouse) (UniProt P16882).
T1 sequence (looked up): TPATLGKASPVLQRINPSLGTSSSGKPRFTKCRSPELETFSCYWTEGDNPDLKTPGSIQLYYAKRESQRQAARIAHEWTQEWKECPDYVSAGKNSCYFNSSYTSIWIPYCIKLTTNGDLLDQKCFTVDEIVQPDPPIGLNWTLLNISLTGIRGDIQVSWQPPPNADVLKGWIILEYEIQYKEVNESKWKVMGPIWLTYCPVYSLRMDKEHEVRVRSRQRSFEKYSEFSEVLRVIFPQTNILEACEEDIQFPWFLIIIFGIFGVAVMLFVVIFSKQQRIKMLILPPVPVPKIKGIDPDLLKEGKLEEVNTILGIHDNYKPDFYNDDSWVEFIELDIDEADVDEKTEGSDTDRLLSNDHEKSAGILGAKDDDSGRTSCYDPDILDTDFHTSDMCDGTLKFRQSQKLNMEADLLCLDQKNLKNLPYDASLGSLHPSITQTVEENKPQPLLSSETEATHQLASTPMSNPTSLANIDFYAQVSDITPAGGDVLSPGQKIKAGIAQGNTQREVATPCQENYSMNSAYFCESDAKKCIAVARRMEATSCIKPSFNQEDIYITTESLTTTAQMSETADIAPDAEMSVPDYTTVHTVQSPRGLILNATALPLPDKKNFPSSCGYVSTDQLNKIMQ
Nature of the experiment: [125I]-hGH specific binding to mouse liver microsomal membranes.

By UniProt entry, the sequences of proteins in these tests, tags left out. Residues count along the entry.
UniProt P01241, residues 27-217: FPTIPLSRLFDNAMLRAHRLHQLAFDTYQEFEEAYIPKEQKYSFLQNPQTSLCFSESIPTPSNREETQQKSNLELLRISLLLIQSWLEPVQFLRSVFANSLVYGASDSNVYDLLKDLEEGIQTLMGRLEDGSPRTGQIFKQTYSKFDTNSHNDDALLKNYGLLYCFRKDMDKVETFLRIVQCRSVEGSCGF

No constants are given. Whether binding was seen depends on the method and setting. Some entries that bind do so weakly or less than the wild type.

“iodinated human growth hormone [125I] hGH (from UniProt P01241 27-217) (ligand)”: the binding entry was “binds”.

The record behind these values is patent US20110092572A1.
